Publication PMC3244432
No constants are given. Whether binding was seen depends on the method and setting. In cells and extracts the contact can be indirect. Some binding calls cover weakened binding; strength is not graded here.

Chains of the proteins cited; added tags and fusions are not shown.
UniProt Q15691: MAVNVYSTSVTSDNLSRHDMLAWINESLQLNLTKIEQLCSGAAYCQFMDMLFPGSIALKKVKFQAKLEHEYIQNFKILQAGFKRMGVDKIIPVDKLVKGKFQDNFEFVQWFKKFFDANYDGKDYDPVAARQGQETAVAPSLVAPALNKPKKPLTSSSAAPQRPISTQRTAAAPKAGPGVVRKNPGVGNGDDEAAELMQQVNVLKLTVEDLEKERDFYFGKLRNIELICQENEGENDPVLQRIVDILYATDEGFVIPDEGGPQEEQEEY

Target: GST-EB1 (UniProt Q15691)
Assay: pull-down; GST-EB1 on glutathione-agarose beads pre-incubated with saturating amounts of antibody 1A11 or non-specific IgG 4 U, washed, then used in precipitations from NRK-52E cell extracts (or extracts of cells expressing GFP-APC-C3); SDS-PAGE and Western blotting; only the target purified

B1: MCAK (protein, UniProt Q62909 1-671)
chain: MIDIDDVAAINPELVQLLPLRPKDSLPLQENVTIPKQKRKSVNSKIPGPKEGLRSRSTRISTVSEVRIPAQENEMEVELPVSTNSRKPFPIHTGHPRPSCSTVTELPLLMISEEAEEQAHSTRSTSSANPGNSVRRKSCIVKEMEKMKNKREEKRAQNSEIRIKRAQEYDNSFPNWEFARMIKEFRVTMDCNPLTVTDPIEEHRICVCVRKRPLNKQELAKKEIDVISVPSKCLLLVHEPKLKVDLTKYLENQAFCFDFAFDETASNEVVYRFTARPLVQTIFEGGKATCFAYGQTGSGKTHTMGGDLSGKSQNASKGIYAMASRDVFLLKNQPRYRSLNLEVYVTFFEIYNGKVFELLNKKAKLRVLEDSKQQVQVVGLQEYLVTCADDVIKMINMGSACRTSGQTFANSNSSRSHACFQILLRAKGRLHGKFSLVDLAGNERGADTSSADRQTRMEGAEINKSLLALKESIRALGQNKAHTPFRESKLTQVLRDSFIGENSRTCMIAMISPGISSCEYTLNTLRYADRVKELSPHSGPSGEQAVQMETEEMDASSHGASLTGNEEEELSSQMSSFNEAMTQIRELEERAMEELREIIQQGPSWLELSEMTDQPDYDLETFVNKAESALTQQAKQAKHFSALQEVIKALRLAMQLEEQASKQINSKKRHQ
**Q.** B1 was tested. Which binding did it give?
**A.** binds
